Results are given in words; binding and its absence hold for the method and conditions named. In cells and extracts the contact can be indirect. A result given as binding can be weak or reduced; the word gives no strength. Sequences can lack the tags named with a protein.
Target: T1, GST-SAP18 (UniProt O00422)
T1 sequence: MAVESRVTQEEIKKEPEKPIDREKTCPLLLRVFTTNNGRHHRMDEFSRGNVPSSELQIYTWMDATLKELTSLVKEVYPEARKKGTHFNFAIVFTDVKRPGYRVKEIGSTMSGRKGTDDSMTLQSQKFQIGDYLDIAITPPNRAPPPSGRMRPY
Test: pull-down; GST-INI1, GST-SAP18, GST-LEDGF or GST-Gemin2 as bait, His6-IN(WT) or His6-IN(W235E) as prey; bound protein quantified as fraction bound after normalising to the loading control

His6-IN(WT) (HIV-1) (enzyme)
binding: binds

— PMC8115288
